No constants are given. Whether binding was seen depends on the method and setting. In cells and extracts the contact can be indirect. Some results given as binding are weak or reduced against the parent protein; the word gives no strength.
How the values were obtained:
Assay in all cases: co-IP; lysates of HEK293T cells expressing the Flag-TRF1 alleles (1X cell lysis buffer with protease inhibitors) mixed overnight with Flag M2 agarose beads; washed four times with lysis buffer; eluted with Laemmli buffer; endogenous TIN2 and POT1 detected by blot
Flag-TRF1-T358A (human) = Flag-TRF1-T358A (human) (UniProt P54274)
Flag-TRF1-T273A (human) = Flag-TRF1-T273A (human) (UniProt P54274)
[1] = biological target: Flag-TRF1 (wild-type human TRF1, FLAG-tagged) (human) (UniProt P54274)

Chains of the proteins cited; added tags and fusions are not shown. Lines headed by an entry give the natural chain unless they say otherwise; changes in a name come on top.
UniProt P54274: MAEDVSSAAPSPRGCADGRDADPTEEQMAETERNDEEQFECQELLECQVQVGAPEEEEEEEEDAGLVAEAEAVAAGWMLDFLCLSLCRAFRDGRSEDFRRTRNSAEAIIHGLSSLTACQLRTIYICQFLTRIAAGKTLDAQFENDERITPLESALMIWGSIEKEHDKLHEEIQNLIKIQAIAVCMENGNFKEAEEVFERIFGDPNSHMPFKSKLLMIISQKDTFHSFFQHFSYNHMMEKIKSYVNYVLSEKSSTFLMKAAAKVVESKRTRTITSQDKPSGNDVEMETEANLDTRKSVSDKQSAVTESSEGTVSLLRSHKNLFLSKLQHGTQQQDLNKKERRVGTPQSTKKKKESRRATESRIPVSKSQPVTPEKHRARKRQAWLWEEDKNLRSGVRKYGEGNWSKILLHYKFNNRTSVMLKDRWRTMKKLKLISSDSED

Measured: binding

B1: TIN2 (endogenous) (protein, UniProt Q9BSI4 1-451)
chain: MATPLVAGPAALRFAAAASWQVVRGRCVEHFPRVLEFLRSLRAVAPGLVRYRHHERLCMGLKAKVVVELILQGRPWAQVLKALNHHFPESGPIVRDPKATKQDLRKILEAQETFYQQVKQLSEAPVDLASKLQELEQEYGEPFLAAMEKLLFEYLCQLEKALPTPQAQQLQDVLSWMQPGVSITSSLAWRQYGVDMGWLLPECSVTDSVNLAEPMEQNPPQQQRLALHNPLPKAKPGTHLPQGPSSRTHPEPLAGRHFNLAPLGRRRVQSQWASTRGGHKERPTVMLFPFRNLGSPTQVISKPESKEEHAIYTADLAMGTRAASTGKSKSPCQTLGGRALKENPVDLPATEQKENCLDCYMDPLRLSLLPPRARKPVCPPSLCSSVITIGDLVLDSDEEENGQGEGKESLENYQKTKFDTLIPTLCEYLPPSGHGAIPVSSCDCRDSSRPL
binds: all assays above

B2: POT1 (endogenous) (protein, UniProt Q9NUX5 1-634)
chain: MSLVPATNYIYTPLNQLKGGTIVNVYGVVKFFKPPYLSKGTDYCSVVTIVDQTNVKLTCLLFSGNYEALPIIYKNGDIVRFHRLKIQVYKKETQGITSSGFASLTFEGTLGAPIIPRTSSKYFNFTTEDHKMVEALRVWASTHMSPSWTLLKLCDVQPMQYFDLTCQLLGKAEVDGASFLLKVWDGTRTPFPSWRVLIQDLVLEGDLSHIHRLQNLTIDILVYDNHVHVARSLKVGSFLRIYSLHTKLQSMNSENQTMLSLEFHLHGGTSYGRGIRVLPESNSDVDQLKKDLESANLTANQHSDVICQSEPDDSFPSSGSVSLYEVERCQQLSATILTDHQYLERTPLCAILKQKAPQQYRIRAKLRSYKPRRLFQSVKLHCPKCHLLQEVPHEGDLDIIFQDGATKTPDVKLQNTSLYDSKIWTTKNQKGRKVAVHFVKNNGILPLSNECLLLIEGGTLSEICKLSNKFNSVIPVRSGHEDLELLDLSAPFLIQGTIHHYGCKQCSSLRSIQNLNSLVDKTSWIPSSVAEALGIVPLQYVFVMTFTLDDGTGVLEAYLMDSDKFFQIPASEVLMDDDLQKSVDMIMDMFCPPGIKIDAYPWLECFIKSYNVTNGTDNQICYQIFDTTVAEDVI
binds: all assays above

From paper PMC7942993
